From patent US20180141977A1 (NORWEGIAN UNIVERSITY OF SCIENCE AND TECHNOLOGY NTNU, published 2018)
Results are given in words; binding and its absence hold for the method and conditions named. Some results given as binding are weak or reduced against the parent protein; the word gives no strength. Values belong to the binder of their own block, whether it stands above or below them.

By UniProt entry, the sequences of proteins in these tests, tags left out.
UniProt P0A988: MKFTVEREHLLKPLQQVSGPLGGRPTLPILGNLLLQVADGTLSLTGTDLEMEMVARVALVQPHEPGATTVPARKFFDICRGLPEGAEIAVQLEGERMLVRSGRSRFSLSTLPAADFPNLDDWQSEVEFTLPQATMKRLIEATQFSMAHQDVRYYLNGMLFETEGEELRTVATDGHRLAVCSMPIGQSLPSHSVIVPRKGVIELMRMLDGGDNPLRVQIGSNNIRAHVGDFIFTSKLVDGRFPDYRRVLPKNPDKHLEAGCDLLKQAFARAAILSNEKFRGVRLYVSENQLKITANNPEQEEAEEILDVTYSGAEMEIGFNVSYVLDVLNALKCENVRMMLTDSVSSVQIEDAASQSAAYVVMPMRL

Molecular target: T1, β-clamp protein from E. coli (E. coli, UniProt P0A988 1-366, labeled with a fluorescent molecule (site not stated))
T1 construct: Fluorescently labelled for microscale thermophoresis; also called sliding clamp
Test: microscale thermophoresis (MST)

Binder: MDRWSVKWKKKRKIRRRRRRRRRRR [… (SEQ ID NO: 1298)]
- binding: binds

Binder: MDRWAVKWKKKRKIRRRRRRRRRRR [… (SEQ ID NO: 1299)]
- binding: binds

Binder: MDRWLSKWKKKRKIRRRRRRRRRRR [… (SEQ ID NO: 1302)]
- binding: binds

Other lines, results leading:

- binding: binds
Binder: MDRWLTKWKKKRKIRRRRRRRRRRR [… (SEQ ID NO: 1300)]

- binding: binds
Binder: MDRWLVPWKKKRKIRRRRRRRRRRR [… (SEQ ID NO: 1303)]

- binding: binds
Binder: MDRFLSKWKKKRKIRRRRRRRRRRR [… (SEQ ID NO: 1301)]

- binding: binds
Binder: MDRFSLKWKKKRKIRRRRRRRRRRR [… (SEQ ID NO: 1304)]

- binding: binds
Binder: MDRWLVKWKKKRKIRRRRRRRRRRR [ATX-101, … (SEQ ID NO: 1289)]
